Experimental data taken from patent US20110245284A1, “Alkoxy- and Alkylthio-Substituted Anilinopyrimidines” (Bayer CropScience AG, priority 2008, published 2011).
Some of these results come from one statement about several compounds together.

System: Phakopsora pachyrhizi
Experiment: Phakopsora test (soya beans) / protective
Type: in vivo
Conditions: active compound concentration 250 ppm, evaluation 1 day after inoculation

`CCC(C)S(=O)(=O)C(C)c1cccc(Nc2ncc(Cl)c(NC3CC3)n2)c1` (stereo not shown) [Example 163] was tested, and the efficacy was ≥ 80%.
